# According to patent US11407840B2, “Antibodies to M(H)DM2/4 and their use in diagnosing and treating cancer” (NomoCan Pharmaceuticals LLC, priority 2017, dated 2022):
# Some of these results come from one statement about several compounds together.
# Test system: human pancreatic cancer MIA PaCa-2 cells
# Assay: Cell-ELISA, intact cells
# Format: binding
# Conditions: intact MIA PaCa-2 cells; FIG. 7
# Procedure: Cell-ELISA Methodology: 8,000-10,000 cells/well of a 96-well microplate were grown overnight. The next day, unbound cells were washed off with sterile 1× PBS. The cells in each well were fixed with freshly prepared 4% buffered paraformaldehyde (pH 7.2) for 1 hour followed by 3 washes with 1× PBS. The wells were then blocked with 5% BSA in PBS (100 ? /well) for 2 hours at room temperature. Microplate wells were then washed 5 times with 300 ? of ice cold 1× PBS. MAbs NMC-103, NMC-204 or NMC-303 at 1 μg/mL in 1% BSA/PBS were then incubated with various cancer or normal untransformed cells for 2 hours at room temperature. Wells were then washed with 300 ? of ice-cold 1× PBS for 5 times and corresponding secondary antibody HRP-GaM F(ab′)2 diluted 1:2500 or 1:5000 in PBS with 1% BSA were added at 100 ? /well for 1 hour at room temperature followed by washing 5 times with 300 ? of ice-cold 1× PBS. […] The reaction was stopped by addition of 50 μL, of stop solution (ThermoFisher, Cat. No. SSO4) to each well and absorbance of each well was measured at OD450 nm. The absorbance value of each experimental well was corrected for the absorbance value obtained from wells treated with isotype-identical mAbs included in each experiment. The results are thus expressed as “relative binding”.
row,Molecule,antibody concentration above which cell-ELISA binding reached a plateau (saturation)
1,"NMC-103: mouse monoclonal antibody, IgG1 isotype, binds NMC-P1 (SEQ ID NO:1); VH SEQ ID NO:36, VL SEQ ID NO:37 (antibody, V domains shown, mAb NMC-103 Heavy Chain Variable Region; mAb NMC-103 Light Chain Variable Region) VH: EVQLQESGGGLVQPGGSLRLSCTTSGFTFTHYYMSWVRQPPGKALEWLGFIRNKAKGYTAEYSASVKGRFTISRDNSQSILYLQMNTLRPEDSATYYCARDIGDNWGQGTLVTVSS VL: DIVMTQAAFSNPVTLGTSASISCRSSKNLLHSNGITYLYWYLQRPGQSPQLLISRVSNLASGVPNRFSGSESGTDFTLRISRVEAEDVGVYFCAQLLELPYTFGGGTKLEIK",above 50 μg/mL
2,"NMC-204: mouse monoclonal antibody, IgG3 isotype, binds NMC-P2 (SEQ ID NO:2); VH SEQ ID NO:38, VL SEQ ID NO:39 (antibody, V domains shown, mAb NMC-204 Heavy Chain Variable Region; mAb NMC-204 Light Chain Variable Region) VH: EVQLQESGSVLVRPGASVKLSCKASGDTLSGSWMHWAMQRPGQGLEWIGEIHLNRGTTNYNEKFKGKATVTVDTSSSTAYVDLSSLTSEDSAVYYCARSPGFAYWGQGTLVTVSA VL: GIVMTQAAPSVPVTPGESVSISCRSSKSLLHSNGNSYLYWFLQRPGQSPQLLIYRMSNLASGVPDRFSGSGSGTAFTLRITRVEAEDVGVYYCMQHLEYPFTFGSGTKLEIK",above 50 μg/mL
